{
  "source": "PubChem BioAssay AID270",
  "about": "(DTP/NCI, 2004)",
  "test_system": "BDF1 mice, s.c. Lewis lung carcinoma, T/C %",
  "test": "NCI In Vivo Anticancer Drug Screen. Data for tumor model Lewis Lung Carcinoma (subcutaneous) in B6D2F1 (BDF1) mice",
  "how_it_was_run": "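First, mice carry a transplantable tumor. Next, groups receive either compound or vehicle. Finally, survival or tumor dimensions in the dosed animals are divided by the corresponding control figure.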",
  "key": {"[1]": {"settings": "T/C endpoint: median survival time, dose: 32.0 mg/kg/injection, schedule: Q01DX009 (ip), vehicle: saline with Tween-80, higher T/C = longer survival"}},
  "note": "The list does not hold the whole screen: it is rich in T/C values a quarter to a half above the control, in often repeated tests (any T/C) and in doses without a T/C. Other doses and runs of a compound stand elsewhere. T/C: endpoint of the treated group in % of that of the vehicle group. Schedules are NCI's codes, taken here to give the interval after Q, in days (D) or hours (H), and the number of doses after X. Some entries give survivors of the animals treated and no T/C: the source holds a T/C of zero for them, seemingly a mark for toxic or unscored doses. Some doses without a T/C left all or most animals alive at the check, yet need not have been tolerated: survival well below the control is almost never listed, so the zero probably covers shortened survival too. Survivors were counted at the toxicity check, usually on the fifth day, unless a day is given; later deaths do not show. Some entries were tested several times; the results are listed from low to high. Where survival is the endpoint, this PubChem deposit counts one and a half times the control or more as active, and values a quarter to a half above the control carry no call in these data; other NCI protocols may use other cut-offs.",
  "data": [
    {"smiles": "O=NN(CCCl)C(=O)Nc1ccc(Cl)c(Cl)c1", "values": [
      {"measurement": "survivor count", "setting": "[1]", "value": "10 of 10"},
      {"measurement": "survivor count", "setting": "T/C endpoint: median survival time, dose: 64.0 mg/kg/injection, schedule: Q01DX009 (ip), vehicle: saline with Tween-80, higher T/C = longer survival", "value": "9 of 10"}
    ]},
    {"smiles": "CC(=O)OC/C=C(C)/C=C/C=C(C)/C=C/C1=C(C)CCCC1(C)C", "values": [
      {"measurement": "T/C", "setting": "T/C endpoint: median survival time, dose: 400.0 mg/kg/injection, schedule: Q01DX005 (ip), vehicle: saline with Tween-80, higher T/C = longer survival", "value": "137 % of control"},
      {"measurement": "T/C", "setting": "T/C endpoint: median survival time, dose: 800.0 mg/kg/injection, schedule: Q01DX005 (ip), vehicle: saline with Tween-80, higher T/C = longer survival", "value": "126 % of control"},
      {"measurement": "T/C", "setting": "T/C endpoint: median survival time, dose: 1600.0 mg/kg/injection, schedule: Q01DX005 (ip), vehicle: saline with Tween-80, higher T/C = longer survival", "value": "132 % of control"}
    ]},
    {"smiles": "COc1ccc(CN2CCCN(Cc3ccc(OC)cc3)C2c2ccc(Cl)cc2Cl)cc1", "values": [
      {"measurement": "T/C", "setting": "T/C endpoint: mean tumor weight, dose: 111.0 mg/kg/injection, schedule: Q01DX011 (ip), vehicle: other, evaluated on day 12, higher T/C = larger tumour", "value": "140 % of control"},
      {"measurement": "survivor count", "setting": "T/C endpoint: mean tumor weight, dose: 250.0 mg/kg/injection, schedule: Q01DX011 (ip), vehicle: other, higher T/C = larger tumour", "value": "0 of 6"}
    ]},
    {"smiles": "O=C(O)CCCc1ccc(N(CCCl)CCCl)cc1", "values": [
      {"measurement": "survivor count", "setting": "T/C endpoint: mean tumor weight, dose: 15.0 mg/kg/injection, schedule: Q01DX011 (ip), vehicle: carboxymethylcellulose (CMC), higher T/C = larger tumour", "value": "4 of 10"},
      {"measurement": "survivor count", "setting": "T/C endpoint: mean tumor weight, dose: 25.0 mg/kg/injection, schedule: Q01DX011 (ip), vehicle: saline, higher T/C = larger tumour", "value": "0 of 6"},
      {"measurement": "T/C", "setting": "T/C endpoint: median survival time, dose: 4.0 mg/kg/injection, schedule: Q04DX003 (ip), vehicle: saline with Tween-80, higher T/C = longer survival", "value": "126 % of control"},
      {"measurement": "T/C", "setting": "T/C endpoint: median survival time, dose: 8.0 mg/kg/injection, schedule: Q04DX003 (ip), vehicle: saline with Tween-80, higher T/C = longer survival", "value": "139 % of control"},
      {"measurement": "survivor count", "setting": "T/C endpoint: median survival time, dose: 16.0 mg/kg/injection, schedule: Q01DX009 (ip), vehicle: saline with Tween-80, higher T/C = longer survival", "value": "9 of 10 and 10 of 10"},
      {"measurement": "T/C", "setting": "T/C endpoint: median survival time, dose: 16.0 mg/kg/injection, schedule: Q04DX003 (ip), vehicle: saline with Tween-80, higher T/C = longer survival", "value": "133 % of control"},
      {"measurement": "survivor count", "setting": "[1]", "value": "1 of 10"},
      {"measurement": "survivor count", "setting": "T/C endpoint: median survival time, dose: 32.0 mg/kg/injection, schedule: Q04DX003 (ip), vehicle: saline with Tween-80, higher T/C = longer survival", "value": "8 of 10"},
      {"measurement": "survivor count", "setting": "T/C endpoint: median survival time, dose: 64.0 mg/kg/injection, schedule: Q01DX001 (ip), vehicle: saline with Tween-80, higher T/C = longer survival", "value": "4 of 10"},
      {"measurement": "survivor count", "setting": "T/C endpoint: median survival time, dose: 64.0 mg/kg/injection, schedule: Q04DX003 (ip), vehicle: saline with Tween-80, higher T/C = longer survival", "value": "5 of 10"}
    ]},
    {"smiles": "N[C@H](C(=O)O)[C@@H]1CC(Cl)=NO1", "values": [
      {"measurement": "T/C", "setting": "T/C endpoint: median survival time, dose: 1.4 mg/kg/injection, schedule: Q01DX009 (ip), vehicle: saline, higher T/C = longer survival", "value": "126 % of control"},
      {"measurement": "T/C", "setting": "T/C endpoint: median survival time, dose: 2.1 mg/kg/injection, schedule: Q01DX009 (ip), vehicle: saline, higher T/C = longer survival", "value": "143 % of control"},
      {"measurement": "T/C", "setting": "T/C endpoint: median survival time, dose: 3.2 mg/kg/injection, schedule: Q01DX009 (ip), vehicle: saline, higher T/C = longer survival", "value": "143 % of control"},
      {"measurement": "T/C", "setting": "T/C endpoint: median survival time, dose: 27.0 mg/kg/injection, schedule: Q04DX003 (ip), vehicle: saline, higher T/C = longer survival", "value": "126 % of control"},
      {"measurement": "T/C", "setting": "T/C endpoint: median survival time, dose: 40.0 mg/kg/injection, schedule: Q01DX001 (ip), vehicle: saline, higher T/C = longer survival", "value": "126 % of control"},
      {"measurement": "T/C", "setting": "T/C endpoint: median survival time, dose: 40.0 mg/kg/injection, schedule: Q04DX003 (ip), vehicle: saline, higher T/C = longer survival", "value": "131 % of control"},
      {"measurement": "T/C", "setting": "T/C endpoint: median survival time, dose: 60.0 mg/kg/injection, schedule: Q01DX001 (ip), vehicle: saline, higher T/C = longer survival", "value": "139 % of control"},
      {"measurement": "T/C", "setting": "T/C endpoint: median survival time, dose: 60.0 mg/kg/injection, schedule: Q04DX003 (ip), vehicle: saline, higher T/C = longer survival", "value": "141 % of control"},
      {"measurement": "T/C", "setting": "T/C endpoint: median survival time, dose: 90.0 mg/kg/injection, schedule: Q01DX001 (ip), vehicle: saline, higher T/C = longer survival", "value": "136 % of control"},
      {"measurement": "T/C", "setting": "T/C endpoint: median survival time, dose: 120.0 mg/kg/injection, schedule: Q04DX002 (ip), vehicle: saline, evaluated on day 6, higher T/C = longer survival", "value": "135 % of control"},
      {"measurement": "T/C", "setting": "T/C endpoint: median survival time, dose: 120.0 mg/kg/injection, schedule: Q04DX002 (ip), vehicle: saline, evaluated on day 36, higher T/C = longer survival", "value": "131 % of control"}
    ]},
    {"smiles": "C/C=C/c1cc2n(c1)C(=O)c1cc(OC3OC(C)C(NC)C(C)(O)C3O)c(C)c(O)c1NC2O", "note": "(stereo not given)", "values": [
      {"measurement": "survivor count", "setting": "T/C endpoint: median survival time, dose: 32.0 micrograms/kg/injection, schedule: Q04DX003 (ip), vehicle: saline, higher T/C = longer survival", "value": "10 of 10"},
      {"measurement": "survivor count", "setting": "T/C endpoint: median survival time, dose: 64.0 micrograms/kg/injection, schedule: Q04DX003 (ip), vehicle: saline, higher T/C = longer survival", "value": "1 of 10"}
    ]}
  ]
}
